Source: publication PMC10939263
These are yes or no findings as the source states them, for the method shown. Binding seen in cells or lysates may run through a third protein. Some entries that bind do so weakly or less than the wild type.

By UniProt entry, the sequences of proteins in these tests, tags left out. Where a name states a change or a piece, a line headed by the entry shows the natural chain unless it says otherwise. Chains listed by the source or under a name are the forms on record and can include a tag or linker.
UniProt P07947: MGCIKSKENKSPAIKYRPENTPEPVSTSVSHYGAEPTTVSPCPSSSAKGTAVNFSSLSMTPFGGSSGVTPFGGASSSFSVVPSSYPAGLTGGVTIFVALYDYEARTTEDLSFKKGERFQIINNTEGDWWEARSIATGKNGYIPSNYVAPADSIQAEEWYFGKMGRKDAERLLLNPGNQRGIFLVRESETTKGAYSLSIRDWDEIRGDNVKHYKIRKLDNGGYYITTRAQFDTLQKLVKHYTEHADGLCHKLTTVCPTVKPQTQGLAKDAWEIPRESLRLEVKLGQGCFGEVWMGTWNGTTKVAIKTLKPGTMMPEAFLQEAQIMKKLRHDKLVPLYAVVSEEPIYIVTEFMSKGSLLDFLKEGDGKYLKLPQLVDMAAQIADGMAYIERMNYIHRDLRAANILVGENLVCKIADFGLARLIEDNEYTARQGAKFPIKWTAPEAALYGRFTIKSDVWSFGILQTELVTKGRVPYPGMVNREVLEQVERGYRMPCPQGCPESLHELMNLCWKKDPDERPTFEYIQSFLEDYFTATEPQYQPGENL
FYN (isoform without exon 7), C1-fused (P06241, form named): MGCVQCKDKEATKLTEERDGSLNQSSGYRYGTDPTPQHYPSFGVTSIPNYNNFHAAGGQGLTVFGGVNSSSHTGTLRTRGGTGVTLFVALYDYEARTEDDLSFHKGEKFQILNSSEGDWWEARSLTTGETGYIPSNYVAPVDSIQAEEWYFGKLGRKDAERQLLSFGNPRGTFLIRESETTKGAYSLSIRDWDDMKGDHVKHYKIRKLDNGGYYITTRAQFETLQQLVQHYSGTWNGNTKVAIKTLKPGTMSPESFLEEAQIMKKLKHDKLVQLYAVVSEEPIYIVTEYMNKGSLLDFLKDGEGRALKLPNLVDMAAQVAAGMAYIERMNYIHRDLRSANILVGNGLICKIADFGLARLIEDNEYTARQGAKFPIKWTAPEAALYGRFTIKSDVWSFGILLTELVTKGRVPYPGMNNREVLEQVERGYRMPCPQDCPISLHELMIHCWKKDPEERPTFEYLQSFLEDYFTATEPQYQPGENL
UniProt Q86WV1: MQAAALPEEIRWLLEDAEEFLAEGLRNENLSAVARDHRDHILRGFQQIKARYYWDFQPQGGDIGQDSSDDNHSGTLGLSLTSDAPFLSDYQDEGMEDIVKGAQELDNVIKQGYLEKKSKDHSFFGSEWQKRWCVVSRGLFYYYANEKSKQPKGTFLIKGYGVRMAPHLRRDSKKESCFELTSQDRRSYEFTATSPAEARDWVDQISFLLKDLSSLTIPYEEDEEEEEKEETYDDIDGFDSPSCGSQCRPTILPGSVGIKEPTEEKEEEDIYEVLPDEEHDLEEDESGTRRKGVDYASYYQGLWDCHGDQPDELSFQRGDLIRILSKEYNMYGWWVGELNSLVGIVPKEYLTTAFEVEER
UniProt O75563: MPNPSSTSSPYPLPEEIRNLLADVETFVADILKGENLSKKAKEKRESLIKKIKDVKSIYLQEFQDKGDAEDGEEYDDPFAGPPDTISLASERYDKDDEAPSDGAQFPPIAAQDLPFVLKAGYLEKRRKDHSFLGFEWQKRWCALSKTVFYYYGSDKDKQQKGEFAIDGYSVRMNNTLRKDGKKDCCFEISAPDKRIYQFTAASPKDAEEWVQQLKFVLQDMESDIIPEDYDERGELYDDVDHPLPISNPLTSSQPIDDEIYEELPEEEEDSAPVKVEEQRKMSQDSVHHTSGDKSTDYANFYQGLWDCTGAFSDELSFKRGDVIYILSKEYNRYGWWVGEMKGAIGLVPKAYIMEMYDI

Key:
[1] = target: YES, N1-fused (UniProt P07947); experiment: split reporter; Gaussia princeps luciferase complementation assay in human HEK293T cells; Gluc2 at the N terminus of SKAP1 or SKAP2 (N2), Gluc1 at the N terminus (N1) or C terminus (C1) of the SRC kinase; 100 ng plasmid pair, PEI; luminescence read in lysate one day later; normalized luminescence ratio (NLR), given relative to wild type or to SKAP2
[2] = target: FYN (isoform without exon 7), C1-fused (UniProt P06241); experiment: as above

Substance	binding [1]	binding [2]
SRC kinase associated phosphoprotein 1 (SKAP1), wild type, N2-fused (from UniProt Q86WV1 1-359)	binds	binds
SRC kinase associated phosphoprotein 2 (SKAP2), wild type, N2-fused (from UniProt O75563 1-359)	binds	binds
